For some assays here: For at least one entry, the source does not settle the construct or the ends of the probe.
Tests used:
[1] = target: EXO (Egl512-751) (Drosophila melanogaster) (UniProt Q9W1K4); assay: fluorescence anisotropy; settings: no binding detected up to 5 uM; residues 512-751
[2] = target: Egl512-819 untagged (Drosophila melanogaster) (UniProt Q9W1K4); assay: fluorescence anisotropy; settings: untagged, value assigned from figure text; residues 512-819
[3] = target: GST-Egl512-819 (Drosophila melanogaster) (UniProt Q9W1K4); assay: competition with a labelled probe; settings: vs FAM-K10 TLS; residues 512-819

Amino acid sequences for entries named in this document (tags omitted). A change or cut given only in a name is not applied to a line headed by its entry.
UniProt Q9W1K4: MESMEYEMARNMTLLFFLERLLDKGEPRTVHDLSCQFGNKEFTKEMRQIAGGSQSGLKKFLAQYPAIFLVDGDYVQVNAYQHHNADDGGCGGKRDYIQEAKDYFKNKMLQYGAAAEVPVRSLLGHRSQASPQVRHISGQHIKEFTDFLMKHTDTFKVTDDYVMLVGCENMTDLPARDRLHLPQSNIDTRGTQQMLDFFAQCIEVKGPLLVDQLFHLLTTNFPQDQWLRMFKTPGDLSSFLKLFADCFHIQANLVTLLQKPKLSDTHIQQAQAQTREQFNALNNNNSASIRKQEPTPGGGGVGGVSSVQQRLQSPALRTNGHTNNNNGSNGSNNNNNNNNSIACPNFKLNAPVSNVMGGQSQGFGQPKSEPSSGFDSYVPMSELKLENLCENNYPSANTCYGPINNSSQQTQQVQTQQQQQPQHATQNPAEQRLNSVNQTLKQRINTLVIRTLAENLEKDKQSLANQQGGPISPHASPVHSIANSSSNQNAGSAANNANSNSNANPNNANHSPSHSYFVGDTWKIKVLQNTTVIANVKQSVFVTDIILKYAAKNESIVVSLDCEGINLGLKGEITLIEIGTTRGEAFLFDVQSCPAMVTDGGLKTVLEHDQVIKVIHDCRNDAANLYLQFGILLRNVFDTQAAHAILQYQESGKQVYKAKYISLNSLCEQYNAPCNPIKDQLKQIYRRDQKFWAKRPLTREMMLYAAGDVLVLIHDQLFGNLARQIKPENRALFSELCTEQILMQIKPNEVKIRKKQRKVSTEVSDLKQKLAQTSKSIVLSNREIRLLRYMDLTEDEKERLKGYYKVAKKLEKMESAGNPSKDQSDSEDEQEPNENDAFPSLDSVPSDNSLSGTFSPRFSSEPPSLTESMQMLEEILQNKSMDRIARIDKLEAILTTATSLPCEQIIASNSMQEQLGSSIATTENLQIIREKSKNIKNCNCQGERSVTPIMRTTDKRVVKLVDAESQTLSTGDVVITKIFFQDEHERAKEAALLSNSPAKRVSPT

Sequence | Kd [1] | Kd [2] | IC50 [3]
CUUGAUUGUAUUUUUAAAUUAAUUCUUAAAAACUACAAAUUAAG [K10 TLS (FAM)] | > 5000 nM | 162 nM | –
CUUGAUUGUAUUUUUAAAUUAAUUCUUAAAAAUACAAUUAAG [K10-Delta b1b2] | – | – | 64 nM
GAAUUAAACAUCAAAAAUUCUUAAUUAAAUUUUUAUGUUAGUUC [K10-as] | – | – | 80 nM
UGAGUGCCAGAAGCUGCCUC / GAGGCAGCUUCUGGCACUCA [dsRNA] | – | – | 102 nM

— doi:10.1101/2025.08.03.668247
